Results are given in words; binding and its absence hold for the method and conditions named. For some assays here: In cells and extracts the contact can be indirect. Some binding calls cover weakened binding; strength is not graded here. For some assays here: Where a sequence is shown, tags or fusion partners need not be part of it.
What was measured:
[1] = biological target: T1, Interferon regulatory factor 1 (IRF1), endogenous in ox-LDL loaded macrophages (mouse (endogenous in peritoneal macrophages)) (UniProt P15314); assay: co-IP; immunoprecipitation with control IgG or an anti-IRF1 antibody from lysates of ox-LDL incubated macrophages with or without LPS challenge (50 pg/mL), with scramble siRNA or si-Myd88; immunoblot for Myd88 or Ubc9; endogenous proteins
T1 sequence: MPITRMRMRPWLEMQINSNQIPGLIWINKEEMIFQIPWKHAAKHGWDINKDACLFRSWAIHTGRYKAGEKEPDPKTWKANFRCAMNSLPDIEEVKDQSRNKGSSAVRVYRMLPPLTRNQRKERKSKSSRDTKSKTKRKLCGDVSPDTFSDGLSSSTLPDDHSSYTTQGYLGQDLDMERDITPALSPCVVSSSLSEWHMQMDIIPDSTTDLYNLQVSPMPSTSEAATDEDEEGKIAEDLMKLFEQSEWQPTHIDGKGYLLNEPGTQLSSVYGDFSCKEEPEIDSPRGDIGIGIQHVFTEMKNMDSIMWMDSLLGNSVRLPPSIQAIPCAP

Chains of the proteins cited; added tags and fusions are not shown.
UniProt P63280: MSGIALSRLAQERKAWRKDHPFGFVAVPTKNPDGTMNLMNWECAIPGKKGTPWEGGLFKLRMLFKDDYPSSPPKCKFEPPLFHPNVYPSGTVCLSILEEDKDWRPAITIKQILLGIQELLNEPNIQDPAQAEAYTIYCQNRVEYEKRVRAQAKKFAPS

[2] = biological target: T2, IRF1, recombinant protein of the GST precipitation assay (UniProt P15314); assay: pull-down; glutathione-S-transferase (GST) precipitation assay using recombinant proteins; both purified
T2 sequence: T1 sequence

Substance	binding [1]	binding [2]
Ubc9, SUMO E2-conjugating enzyme, endogenous in ox-LDL loaded macrophages (from UniProt P63280 1-158)	binds	–
Ubc9, recombinant protein of the GST precipitation assay (from UniProt P63280 1-158) (enzyme)	–	binds

— publication PMC6643443
